No constants are given. Whether binding was seen depends on the method and setting. Some binding calls cover weakened binding; strength is not graded here. For some of these results: Tags and fused reporters may be left off the sequences shown. One block for each binder: values may come before it.
Columns and labels:
[1] = molecular target: native mouse tissue α-L-fucosidase 1 (Fuca1) from liver lysosome-enriched fractions (tritosomes) (mouse (endogenous in liver)) (UniProt Q99LJ1); assay: SEC; Superdex 200 Increase 10/300 GL, PBS pH 7.4; lysosome-enriched fraction (tritosomes) of mouse liver; fractions tested by 4-MUF fucosidase activity
[2] = molecular target: native mouse tissue α-L-fucosidase 1 (Fuca1) from liver lysosome-enriched fractions (tritosomes) (mouse (endogenous in liver)) (UniProt Q99LJ1); assay: SEC; Superdex 200 Increase 10/300 GL, McIlvaine buffer pH 4.6; lysosome-enriched fraction (tritosomes) of mouse liver; fractions tested by 4-MUF fucosidase activity
[3] = molecular target: H6-tagged human plasma α-L-fucosidase 2 (FUCA2-H6) (human) (UniProt Q9BTY2); assay: SEC; Superdex 200 Increase 10/300 GL, McIlvaine buffer pH 4.6, 0.3 mL/min; purified protein; fractions tested by 4-MUF fucosidase activity (FUCA1) or H6-tag western blot (FUCA2-H6); both purified
[4] = molecular target: untagged human tissue α-L-fucosidase 1 (FUCA1) (human) (UniProt P04066); assay: SEC; Superdex 200 Increase 10/300 GL, PBS pH 7.4, 0.3 mL/min; purified protein; fractions tested by 4-MUF fucosidase activity; both purified

- binding [1]: no binding (condition: at pH 7.4 (PBS))
- binding [2]: binds
B1: native mouse tissue α-L-fucosidase 1 (Fuca1) from liver lysosome-enriched fractions (tritosomes) (enzyme, UniProt Q99LJ1 18-452)
chain: LAPRRFTPDWQSLDSRPLPSWFDEAKFGVFVHWGVFSVPAWGSEWFWWHWQGDRMPAYQRFMTENYPPGFSYADFAPQFTARFFHPDQWAELFQAAGAKYVVLTTKHHEGFTNWPSPVSWNWNSKDVGPHRDLVGELGAAVRKRNIRYGLYHSLLEWFHPLYLLDKKNGFKTQHFVRAKTMPELYDLVNSYKPDLIWSDGEWECPDTYWNSTSFLAWLYNDSPVKDEVIVNDRWGQNCSCHHGGYYNCQDKYKPQSLPDHKWEMCTSMDRASWGYRKDMTMSTIAKENEIIEELVQTVSLGGNYLLNIGPTKDGLIVPIFQERLLAVGKWLQINGEAIYASKPWRVQSEKNKTVVWYTTKNATVYATFLYWPENGIVNLKSPKTTSATKITMLGLEGDLSWTQDPLEGVLISLPQLPPTVLPVEFAWTLKLTKVN

- binding [3]: no binding
B2: H6-tagged human plasma α-L-fucosidase 2 (FUCA2-H6) (protein, UniProt Q9BTY2-1 29-467)
chain: HSATRFDPTWESLDARQLPAWFDQAKFGIFIHWGVFSVPSFGSEWFWWYWQKEKIPKYVEFMKDNYPPSFKYEDFGPLFTAKFFNANQWADIFQASGAKYIVLTSKHHEGFTLWGSEYSWNWNAIDEGPKRDIVKELEVAIRNRTDLRFGLYYSLFEWFHPLFLEDESSSFHKRQFPVSKTLPELYELVNNYQPEVLWSDGDGGAPDQYWNSTGFLAWLYNESPVRGTVVTNDRWGAGSICKHGGFYTCSDRYNPGHLLPHKWENCMTIDKLSWGYRREAGISDYLTIEELVKQLVETVSCGGNLLMNIGPTLDGTISVVFEERLRQMGSWLKVNGEAIYETHTWRSQNDTVTPDVWYTSKPKEKLVYAIFLKWPTSGQLFLGHPKAILGATEVKLLGHGQPLNWISLEQNGIMVELPQLTIHQMPCKWGWALALTNVI

- binding [4]: no binding (condition: at pH 7.4 (PBS))
B3: untagged human tissue α-L-fucosidase 1 (FUCA1) (enzyme, UniProt P04066 32-466, looked up)
chain: QPPRRYTPDWPSLDSRPLPAWFDEAKFGVFIHWGVFSVPAWGSEWFWWHWQGEGRPQYQRFMRDNYPPGFSYADFGPQFTARFFHPEEWADLFQAAGAKYVVLTTKHHEGFTNWPSPVSWNWNSKDVGPHRDLVGELGTALRKRNIRYGLYHSLLEWFHPLYLLDKKNGFKTQHFVSAKTMPELYDLVNSYKPDLIWSDGEWECPDTYWNSTNFLSWLYNDSPVKDEVVVNDRWGQNCSCHHGGYYNCEDKFKPQSLPDHKWEMCTSIDKFSWGYRRDMALSDVTEESEIISELVQTVSLGGNYLLNIGPTKDGLIVPIFQERLLAVGKWLSINGEAIYASKPWRVQWEKNTTSVWYTSKGSAVYAIFLHWPENGVLNLESPITTSTTKITMLGIQGDLKWSTDPDKGLFISLPQLPPSAVPAEFAWTIKLTGVK
notes: human tissue α-L-fucosidase FUCA1; untagged, secreted into the medium; N-glycosylated; also called untagged FUCA1; hFUCA1; source: CHO-K1 cells, stably expressing, conditioned medium, purified (ammonium sulfate precipitation, strong cation exchange)
